PubChem BioAssay AID504437 (Emory University Molecular Libraries Screening Center, 2011)
The list shows a part of the results, in another mix than the full data. Active and inactive are the calls of the source.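 How the source made its calls: active means mean of three repeat readings of reporter signal inhibition above a set limit (cut at about 70% in these data); inactive means the rest.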

experiment: CHOP promoter reporter blockers, replicate testing – cell-based, confirmation (AID 504437); conditions: CHO-CHOP promoter luciferase reporter, tunicamycin-induced, luminescence; at 10 µM; active compounds read high;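 further: 0% = tunicamycin plus vehicle and 100% = wells lacking tunicamycin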

inhibition, active:
COc1cc(CN2CCc3ccccc3C2)ccc1O 113%
CCc1ccc(Oc2coc3cc(OCC(=O)Nc4cc(C)ccc4C)ccc3c2=O)cc1 104%
CC(C)(C)C1CCC2(CC1)C(C#N)=C(SCC(=O)Nc1ccccc1)NC(=O)C2C#N (stereo not given) 113%
Nc1nonc1-n1nnc(C(=O)N/N=C/c2ccc(OCc3ccc(F)cc3)cc2)c1COc1ccccc1 83.8%
COc1ccc2[nH]c3c(C)c4ccncc4c(C)c3c2c1 127%
